Measurements: publication doi:10.1101/2025.03.12.642832
These are yes or no findings as the source states them, for the method shown. Some results given as binding are weak or reduced against the parent protein; the word gives no strength.

Amino acid sequences for entries named in this document (tags omitted).
UniProt Q869W9, whole entry: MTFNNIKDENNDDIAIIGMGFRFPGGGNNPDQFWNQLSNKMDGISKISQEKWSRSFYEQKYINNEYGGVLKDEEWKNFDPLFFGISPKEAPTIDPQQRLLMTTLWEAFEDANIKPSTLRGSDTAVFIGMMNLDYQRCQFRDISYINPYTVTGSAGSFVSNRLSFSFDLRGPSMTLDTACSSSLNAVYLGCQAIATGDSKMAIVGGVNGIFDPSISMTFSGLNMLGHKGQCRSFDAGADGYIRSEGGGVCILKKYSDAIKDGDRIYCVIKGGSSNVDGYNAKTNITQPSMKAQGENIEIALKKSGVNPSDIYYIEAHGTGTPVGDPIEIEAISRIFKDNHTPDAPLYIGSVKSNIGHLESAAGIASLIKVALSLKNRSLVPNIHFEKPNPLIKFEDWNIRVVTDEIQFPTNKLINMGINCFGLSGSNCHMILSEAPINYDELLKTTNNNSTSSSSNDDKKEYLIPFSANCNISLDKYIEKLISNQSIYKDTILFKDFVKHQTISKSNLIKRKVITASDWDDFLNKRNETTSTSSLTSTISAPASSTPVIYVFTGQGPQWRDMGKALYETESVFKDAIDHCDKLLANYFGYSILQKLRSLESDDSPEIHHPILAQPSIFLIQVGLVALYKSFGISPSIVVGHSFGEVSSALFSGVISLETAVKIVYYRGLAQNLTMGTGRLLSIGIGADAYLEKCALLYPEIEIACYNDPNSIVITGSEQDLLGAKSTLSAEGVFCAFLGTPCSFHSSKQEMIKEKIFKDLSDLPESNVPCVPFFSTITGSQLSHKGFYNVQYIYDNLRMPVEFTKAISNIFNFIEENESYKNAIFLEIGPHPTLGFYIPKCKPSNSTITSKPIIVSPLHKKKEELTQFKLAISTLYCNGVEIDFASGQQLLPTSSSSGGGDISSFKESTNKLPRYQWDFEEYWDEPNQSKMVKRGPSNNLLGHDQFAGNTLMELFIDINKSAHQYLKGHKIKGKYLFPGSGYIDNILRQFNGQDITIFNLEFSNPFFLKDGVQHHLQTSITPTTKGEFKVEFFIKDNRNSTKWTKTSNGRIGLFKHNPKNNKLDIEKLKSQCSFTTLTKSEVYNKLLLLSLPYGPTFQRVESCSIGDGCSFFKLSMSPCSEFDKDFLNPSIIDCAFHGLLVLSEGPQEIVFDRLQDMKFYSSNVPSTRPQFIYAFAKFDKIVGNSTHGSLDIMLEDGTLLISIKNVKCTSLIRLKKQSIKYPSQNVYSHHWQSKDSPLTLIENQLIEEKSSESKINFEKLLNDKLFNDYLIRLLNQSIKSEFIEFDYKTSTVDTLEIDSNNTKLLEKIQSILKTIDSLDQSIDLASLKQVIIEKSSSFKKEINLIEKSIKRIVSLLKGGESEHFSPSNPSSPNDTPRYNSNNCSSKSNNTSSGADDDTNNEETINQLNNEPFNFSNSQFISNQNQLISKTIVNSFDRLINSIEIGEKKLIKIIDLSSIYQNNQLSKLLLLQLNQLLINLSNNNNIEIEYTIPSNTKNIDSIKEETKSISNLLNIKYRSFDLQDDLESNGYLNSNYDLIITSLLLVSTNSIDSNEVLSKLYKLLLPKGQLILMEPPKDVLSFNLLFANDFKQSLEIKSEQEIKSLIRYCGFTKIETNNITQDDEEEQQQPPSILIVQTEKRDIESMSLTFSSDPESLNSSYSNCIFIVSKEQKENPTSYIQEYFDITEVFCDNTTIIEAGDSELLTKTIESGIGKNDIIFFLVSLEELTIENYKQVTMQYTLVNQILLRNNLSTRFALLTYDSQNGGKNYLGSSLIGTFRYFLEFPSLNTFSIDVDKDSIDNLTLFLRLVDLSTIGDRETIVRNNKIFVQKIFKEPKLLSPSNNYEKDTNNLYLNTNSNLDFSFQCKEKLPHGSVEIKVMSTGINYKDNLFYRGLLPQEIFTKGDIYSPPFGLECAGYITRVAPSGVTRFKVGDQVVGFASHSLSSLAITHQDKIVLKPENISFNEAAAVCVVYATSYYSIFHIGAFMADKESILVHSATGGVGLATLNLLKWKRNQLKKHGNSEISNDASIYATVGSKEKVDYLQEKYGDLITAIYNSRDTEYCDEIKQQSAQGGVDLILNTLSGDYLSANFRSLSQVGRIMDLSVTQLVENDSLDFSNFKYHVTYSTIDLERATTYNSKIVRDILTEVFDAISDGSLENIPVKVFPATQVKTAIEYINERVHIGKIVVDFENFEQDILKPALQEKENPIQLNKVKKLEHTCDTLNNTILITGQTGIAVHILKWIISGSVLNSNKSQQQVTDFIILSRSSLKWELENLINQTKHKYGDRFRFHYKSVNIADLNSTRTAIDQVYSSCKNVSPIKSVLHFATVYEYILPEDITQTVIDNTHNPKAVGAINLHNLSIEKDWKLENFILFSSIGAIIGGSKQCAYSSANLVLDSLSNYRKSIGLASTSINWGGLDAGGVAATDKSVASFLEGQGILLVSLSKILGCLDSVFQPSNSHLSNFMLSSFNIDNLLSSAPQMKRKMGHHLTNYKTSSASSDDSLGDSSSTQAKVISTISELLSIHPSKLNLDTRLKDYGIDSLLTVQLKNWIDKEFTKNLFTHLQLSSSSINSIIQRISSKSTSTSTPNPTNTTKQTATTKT

Experiments:
[1] = molecular target: polyketide synthase 16 (Pks16) (D. discoideum (endogenous in AX2-214 cells)) (UniProt Q869W9); test: cryo-EM structure
[2] = molecular target: dihydrolipoyllysine-residue succinyltransferase (Odo2) of the mitochondrial 2-oxoglutarate dehydrogenase complex (D. discoideum (endogenous in AX2-214 cells)) (UniProt Q869Y7); test: cryo-EM structure

binding [1] | binding [2] | Molecule
binds |  | polyketide synthase 16 (Pks16) (from UniProt Q869W9 1-2603) (enzyme)
 | binds | dihydrolipoyllysine-residue succinyltransferase (Odo2) of the mitochondrial 2-oxoglutarate dehydrogenase complex (enzyme, UniProt Q869Y7 48-439) FTSLFNNNNVNNTNIKYQRFYSSANDVVIKVPSMGDSISEGTIVAWTKNVGDSVRVDEVVCSIETDKVTIDINAPVSGTIVELFAKEGENVTVGNDLYKIAKGEVAAAPKVEAPKAAEAPKAAAPTPAPKAAETPKAAPAPKSEAPTPAPKSTTTTTSTGPSETRVKMTRIRQRTAQRLKDSQNTAAMLTTFNELDMSALMNMRKTYKDEFEKKHGVKFGFMSAFVKASTIALKEQPIVNASVEENDIVYHNNVNINVAVSAPRGLVVPVIRNCENLSFADIEKEIGRLSGLARNDALAIEDSIGGTFTISNGGVFGSMFGTPIINPPQSAILGMHAIKDRPYVVNGQVVVRPIMYLALTYDHRIIDGREAVTFLKKIKDVLENPERILLEL
